In the supplement of paper PMC10849652:
The list shows a part of the results.

By UniProt entry, the sequences of proteins in these tests, tags left out. Where a name states a change or a piece, a line headed by the entry shows the natural chain unless it says otherwise.
UniProt Q9BVG9: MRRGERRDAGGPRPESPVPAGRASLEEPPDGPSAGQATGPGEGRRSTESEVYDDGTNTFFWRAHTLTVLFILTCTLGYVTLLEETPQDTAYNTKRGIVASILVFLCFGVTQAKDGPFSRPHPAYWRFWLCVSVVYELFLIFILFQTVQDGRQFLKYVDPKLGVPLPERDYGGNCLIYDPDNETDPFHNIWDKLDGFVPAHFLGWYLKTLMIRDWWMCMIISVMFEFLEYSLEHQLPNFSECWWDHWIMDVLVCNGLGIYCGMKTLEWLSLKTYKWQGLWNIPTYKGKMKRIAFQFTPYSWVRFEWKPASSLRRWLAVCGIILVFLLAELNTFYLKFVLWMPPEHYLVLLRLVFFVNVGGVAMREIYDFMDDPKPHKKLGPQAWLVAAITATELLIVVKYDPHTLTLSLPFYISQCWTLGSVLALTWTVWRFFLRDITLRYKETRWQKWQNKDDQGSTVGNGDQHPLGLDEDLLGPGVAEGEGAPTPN
UniProt Q15185: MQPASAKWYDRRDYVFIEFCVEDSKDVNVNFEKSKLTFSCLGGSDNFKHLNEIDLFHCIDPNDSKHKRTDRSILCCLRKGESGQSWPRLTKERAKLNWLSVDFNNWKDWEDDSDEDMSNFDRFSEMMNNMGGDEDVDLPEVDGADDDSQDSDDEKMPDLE
UniProt O00487, whole entry, looked up: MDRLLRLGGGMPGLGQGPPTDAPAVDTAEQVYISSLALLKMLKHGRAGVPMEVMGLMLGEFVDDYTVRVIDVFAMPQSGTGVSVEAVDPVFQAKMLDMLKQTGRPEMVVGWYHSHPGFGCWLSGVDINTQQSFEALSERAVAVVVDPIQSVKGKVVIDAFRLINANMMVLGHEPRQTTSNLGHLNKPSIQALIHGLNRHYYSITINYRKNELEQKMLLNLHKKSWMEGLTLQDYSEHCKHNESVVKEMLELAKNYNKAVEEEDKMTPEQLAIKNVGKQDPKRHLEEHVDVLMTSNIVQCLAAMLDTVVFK
UniProt Q9NR77: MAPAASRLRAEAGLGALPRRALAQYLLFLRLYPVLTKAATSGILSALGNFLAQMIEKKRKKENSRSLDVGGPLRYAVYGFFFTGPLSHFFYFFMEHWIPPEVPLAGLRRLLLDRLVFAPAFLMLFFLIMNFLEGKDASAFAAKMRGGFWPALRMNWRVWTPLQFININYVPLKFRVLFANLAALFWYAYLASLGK
UniProt P53801: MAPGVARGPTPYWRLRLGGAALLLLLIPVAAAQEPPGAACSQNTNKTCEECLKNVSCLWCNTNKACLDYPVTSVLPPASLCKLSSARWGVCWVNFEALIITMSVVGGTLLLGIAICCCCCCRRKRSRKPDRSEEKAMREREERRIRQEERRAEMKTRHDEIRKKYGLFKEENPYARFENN
UniProt Q16401: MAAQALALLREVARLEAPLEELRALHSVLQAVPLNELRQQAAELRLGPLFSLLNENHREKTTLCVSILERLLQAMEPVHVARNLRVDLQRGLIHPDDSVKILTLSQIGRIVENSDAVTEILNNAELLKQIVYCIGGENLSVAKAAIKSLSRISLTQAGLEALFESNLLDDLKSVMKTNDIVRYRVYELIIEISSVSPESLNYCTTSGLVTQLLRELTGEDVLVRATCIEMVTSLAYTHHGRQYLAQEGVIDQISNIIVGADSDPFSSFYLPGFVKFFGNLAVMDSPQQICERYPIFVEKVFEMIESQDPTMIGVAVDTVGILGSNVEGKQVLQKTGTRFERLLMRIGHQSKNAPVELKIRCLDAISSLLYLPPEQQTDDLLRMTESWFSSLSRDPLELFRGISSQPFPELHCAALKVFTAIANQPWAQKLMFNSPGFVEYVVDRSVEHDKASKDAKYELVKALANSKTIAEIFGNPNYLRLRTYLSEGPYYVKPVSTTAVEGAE
UniProt Q86TP1: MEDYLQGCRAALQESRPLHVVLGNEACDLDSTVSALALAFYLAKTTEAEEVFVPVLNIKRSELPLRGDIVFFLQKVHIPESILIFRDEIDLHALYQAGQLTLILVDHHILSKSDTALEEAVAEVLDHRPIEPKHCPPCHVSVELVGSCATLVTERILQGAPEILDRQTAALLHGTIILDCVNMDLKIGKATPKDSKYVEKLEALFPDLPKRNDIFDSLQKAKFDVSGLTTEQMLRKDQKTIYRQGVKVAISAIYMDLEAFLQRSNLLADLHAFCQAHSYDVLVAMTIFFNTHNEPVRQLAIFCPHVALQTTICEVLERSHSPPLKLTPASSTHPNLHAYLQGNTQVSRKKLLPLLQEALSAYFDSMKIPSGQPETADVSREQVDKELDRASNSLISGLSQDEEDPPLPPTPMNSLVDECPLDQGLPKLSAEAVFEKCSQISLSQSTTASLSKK
UniProt P51665: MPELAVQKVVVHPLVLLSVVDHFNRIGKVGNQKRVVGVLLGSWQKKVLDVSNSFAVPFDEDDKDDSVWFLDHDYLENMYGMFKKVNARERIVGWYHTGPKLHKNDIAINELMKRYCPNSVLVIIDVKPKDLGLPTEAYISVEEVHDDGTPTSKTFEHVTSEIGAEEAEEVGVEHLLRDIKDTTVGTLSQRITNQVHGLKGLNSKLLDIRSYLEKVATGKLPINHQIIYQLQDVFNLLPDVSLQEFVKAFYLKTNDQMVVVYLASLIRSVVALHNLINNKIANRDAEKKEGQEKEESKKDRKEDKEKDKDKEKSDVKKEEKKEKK
UniProt O00233: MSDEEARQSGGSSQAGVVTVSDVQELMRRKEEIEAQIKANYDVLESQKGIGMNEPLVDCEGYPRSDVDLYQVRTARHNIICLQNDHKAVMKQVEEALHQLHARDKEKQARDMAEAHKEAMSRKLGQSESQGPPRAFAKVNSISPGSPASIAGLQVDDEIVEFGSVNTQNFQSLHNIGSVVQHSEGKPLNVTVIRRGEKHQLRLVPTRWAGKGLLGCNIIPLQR
UniProt Q9BRX8: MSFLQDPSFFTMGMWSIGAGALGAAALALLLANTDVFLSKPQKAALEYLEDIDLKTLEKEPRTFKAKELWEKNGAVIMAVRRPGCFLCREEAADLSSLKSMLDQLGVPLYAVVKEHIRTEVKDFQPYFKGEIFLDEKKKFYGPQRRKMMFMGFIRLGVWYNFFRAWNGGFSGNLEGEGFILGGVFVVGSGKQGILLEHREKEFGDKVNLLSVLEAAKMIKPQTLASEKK
UniProt Q96BW5: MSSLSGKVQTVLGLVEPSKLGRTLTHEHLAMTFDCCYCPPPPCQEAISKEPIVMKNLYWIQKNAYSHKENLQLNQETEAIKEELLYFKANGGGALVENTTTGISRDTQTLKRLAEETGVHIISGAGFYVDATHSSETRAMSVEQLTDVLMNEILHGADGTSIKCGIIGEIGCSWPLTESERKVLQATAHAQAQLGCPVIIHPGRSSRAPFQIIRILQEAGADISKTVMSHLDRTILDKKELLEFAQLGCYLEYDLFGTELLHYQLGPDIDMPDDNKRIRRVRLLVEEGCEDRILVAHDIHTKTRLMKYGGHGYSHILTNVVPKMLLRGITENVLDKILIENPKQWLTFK
UniProt Q15257: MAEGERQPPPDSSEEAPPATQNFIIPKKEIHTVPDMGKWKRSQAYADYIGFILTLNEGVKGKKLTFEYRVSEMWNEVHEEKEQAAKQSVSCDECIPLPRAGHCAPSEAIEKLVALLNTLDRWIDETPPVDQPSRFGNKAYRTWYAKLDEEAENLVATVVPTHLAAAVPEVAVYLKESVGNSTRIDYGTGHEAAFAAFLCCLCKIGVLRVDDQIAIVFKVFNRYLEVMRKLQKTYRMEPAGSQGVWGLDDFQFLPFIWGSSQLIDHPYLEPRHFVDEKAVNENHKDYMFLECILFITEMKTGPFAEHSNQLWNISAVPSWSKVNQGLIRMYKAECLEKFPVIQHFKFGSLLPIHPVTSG
UniProt Q9Y3E5: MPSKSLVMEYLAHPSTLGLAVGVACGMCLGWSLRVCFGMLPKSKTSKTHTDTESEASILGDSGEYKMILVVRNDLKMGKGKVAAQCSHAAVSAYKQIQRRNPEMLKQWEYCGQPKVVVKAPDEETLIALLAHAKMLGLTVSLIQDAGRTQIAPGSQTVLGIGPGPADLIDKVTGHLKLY
UniProt P62195, whole entry, looked up: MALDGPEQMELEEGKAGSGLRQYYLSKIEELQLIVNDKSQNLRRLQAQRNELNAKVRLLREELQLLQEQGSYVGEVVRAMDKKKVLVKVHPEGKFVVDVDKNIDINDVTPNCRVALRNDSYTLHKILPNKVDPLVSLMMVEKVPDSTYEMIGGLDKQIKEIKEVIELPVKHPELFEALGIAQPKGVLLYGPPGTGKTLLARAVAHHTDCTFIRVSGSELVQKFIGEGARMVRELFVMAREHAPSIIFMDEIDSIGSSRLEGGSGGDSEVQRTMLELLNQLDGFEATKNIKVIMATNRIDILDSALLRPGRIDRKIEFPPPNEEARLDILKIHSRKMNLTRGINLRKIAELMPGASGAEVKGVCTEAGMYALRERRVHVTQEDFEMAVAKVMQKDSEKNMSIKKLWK
UniProt Q9Y6I8: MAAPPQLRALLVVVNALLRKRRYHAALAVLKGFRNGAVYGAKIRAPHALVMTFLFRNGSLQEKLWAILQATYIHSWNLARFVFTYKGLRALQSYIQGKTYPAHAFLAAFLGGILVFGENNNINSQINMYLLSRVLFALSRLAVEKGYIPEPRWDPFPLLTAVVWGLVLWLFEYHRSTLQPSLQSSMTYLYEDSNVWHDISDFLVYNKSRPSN
UniProt P28074: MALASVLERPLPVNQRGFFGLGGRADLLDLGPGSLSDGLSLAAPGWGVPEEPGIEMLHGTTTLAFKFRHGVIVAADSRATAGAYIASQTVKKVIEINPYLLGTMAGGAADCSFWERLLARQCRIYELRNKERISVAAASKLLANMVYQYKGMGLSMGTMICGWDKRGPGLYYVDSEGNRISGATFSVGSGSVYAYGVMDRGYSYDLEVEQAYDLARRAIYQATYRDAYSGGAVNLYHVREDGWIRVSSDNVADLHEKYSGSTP
UniProt Q3MIT2: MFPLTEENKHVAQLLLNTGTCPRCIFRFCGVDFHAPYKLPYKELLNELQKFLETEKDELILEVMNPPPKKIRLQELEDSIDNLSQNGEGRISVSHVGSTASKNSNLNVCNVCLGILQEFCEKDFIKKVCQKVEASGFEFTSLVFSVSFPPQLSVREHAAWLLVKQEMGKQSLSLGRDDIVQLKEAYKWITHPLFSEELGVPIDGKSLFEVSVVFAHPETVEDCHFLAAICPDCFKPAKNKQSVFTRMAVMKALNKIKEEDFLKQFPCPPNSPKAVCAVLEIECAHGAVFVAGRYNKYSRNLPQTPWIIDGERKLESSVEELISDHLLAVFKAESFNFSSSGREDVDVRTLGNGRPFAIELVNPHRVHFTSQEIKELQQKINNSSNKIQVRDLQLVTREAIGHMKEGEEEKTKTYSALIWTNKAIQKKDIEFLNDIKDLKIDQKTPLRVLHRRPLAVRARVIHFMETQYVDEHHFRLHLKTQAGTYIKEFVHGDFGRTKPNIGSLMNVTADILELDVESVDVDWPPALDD
UniProt Q96C36: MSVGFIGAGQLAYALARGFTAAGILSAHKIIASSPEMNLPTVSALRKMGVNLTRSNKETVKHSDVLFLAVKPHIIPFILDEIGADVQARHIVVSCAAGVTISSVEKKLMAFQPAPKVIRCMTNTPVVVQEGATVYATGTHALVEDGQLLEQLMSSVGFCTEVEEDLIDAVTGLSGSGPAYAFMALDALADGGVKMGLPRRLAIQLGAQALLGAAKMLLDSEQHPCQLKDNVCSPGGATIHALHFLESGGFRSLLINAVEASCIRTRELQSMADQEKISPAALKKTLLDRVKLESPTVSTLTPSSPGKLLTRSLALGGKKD
UniProt P49023, whole entry, looked up: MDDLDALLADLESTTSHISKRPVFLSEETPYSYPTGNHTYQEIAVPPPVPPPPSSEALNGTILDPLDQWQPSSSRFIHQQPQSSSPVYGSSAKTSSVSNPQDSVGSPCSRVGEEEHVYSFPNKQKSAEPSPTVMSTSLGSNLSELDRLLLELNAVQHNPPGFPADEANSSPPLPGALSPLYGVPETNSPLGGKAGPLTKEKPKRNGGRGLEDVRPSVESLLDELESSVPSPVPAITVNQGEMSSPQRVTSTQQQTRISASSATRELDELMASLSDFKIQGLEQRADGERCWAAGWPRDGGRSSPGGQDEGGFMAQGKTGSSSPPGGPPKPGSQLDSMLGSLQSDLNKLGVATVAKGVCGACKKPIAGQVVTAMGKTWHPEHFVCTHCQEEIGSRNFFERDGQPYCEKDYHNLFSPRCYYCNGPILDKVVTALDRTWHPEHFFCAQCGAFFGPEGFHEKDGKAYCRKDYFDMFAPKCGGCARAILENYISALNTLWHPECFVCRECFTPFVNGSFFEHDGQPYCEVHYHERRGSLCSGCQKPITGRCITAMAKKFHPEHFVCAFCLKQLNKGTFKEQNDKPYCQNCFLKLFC

What was measured:
Test in all cases: log2 fold change, soluble protein after heating vs DMSO (PISA); higher = thermal stabilisation; K562 cells, 10 uM, 30 min; active = over 0.2 and 3.5 SD of the protein, either way, in both replicates (recomputed)
[1] = compound: NC(=O)Nc1cc(-c2cccc(F)c2)sc1C(=O)N[C@H]1CCCNC1
In short: (§1)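 Aliquots of K562 cells (2×10^6 cells/mL) treated with 10 μM compound for 30 min were heated for 3 min over 48°C-58°C. After pooling and extraction in PBS with 0.5% NP-40 at 4°C, soluble protein from a 21,000xg, 90 min spin was quantified by TMTpro 16plex LC-MS/MS with channel sums equalised. Thermal stability is expressed against control samples, from duplicates, as a log2 fold change.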

[2] = compound: NC(=O)c1cnc(N[C@@H]2CCCC[C@@H]2N)nc1Nc1cccc(-n2nccn2)c1
In short: as §1

[3] = compound: NC1(c2ccc(-c3nc4ccn5c(=O)[nH]nc5c4cc3-c3ccccc3)cc2)CCC1
In short: as §1

[4] = compound: NCC(=O)Nc1ccc(-n2nc(C(F)(F)F)cc2-c2ccc3c(ccc4ccccc43)c2)cc1
In short: as §1

[5] = compound: Nc1ccccc1NC(=O)c1ccc(CNC(=O)OCc2cccnc2)cc1 [entinostat]
In short: as §1

[6] = compound: O=C(CCCCCCC(=O)Nc1ccccc1)NO [vorinostat]
In short: as §1

[7] = compound: O=C(CCCCCCNC(=O)c1cnc(N(c2ccccc2)c2ccccc2Cl)nc1)NO [citarinostat]
In short: as §1

[8] = compound: O=C(O)c1ccc2c(c1)nc(Nc1cccc(Cl)c1)c1ccncc12 [silmitasertib]
In short: as §1

[9] = compound: O=C1NC(=O)C(c2cnc3ccccn23)=C1c1cn2c3c(cc(F)cc13)CN(C(=O)N1CCCCC1)CC2
In short: as §1

[10] = compound: c1cc(OCCN2CCCCC2)cc(-c2n[nH]c3ccc(-c4nnc[nH]4)cc23)c1
In short: as §1

Measured: log2 fold change

PTDSS2 (UniProt Q9BVG9)
inactive: [1] -0.001 | [2] -0.073 | [3] -0.069 | [4] -0.1 | [5] 0.072 | [6] 0.09 | [7] 0.022 | [8] 0.106 | [9] 0 | [10] 0.046

PTGES3 (UniProt Q15185)
inactive: [1] -0.043 | [2] -0.006 | [3] -0.123 | [4] 0.017 | [5] 0.075 | [6] 0.002 | [7] 0.111 | [8] -0.002 | [9] -0.142 | [10] 0.054

PSMD14 (UniProt O00487)
inactive: [1] 0.025 | [2] 0.007 | [3] -0.021 | [4] 0.038 | [5] 0.008 | [6] 0.014 | [7] 0.009 | [8] -0.01 | [9] 0.088 | [10] -0.083

PXMP2 (UniProt Q9NR77)
inactive: [1] 0.022 | [2] 0.04 | [3] -0.031 | [4] 0.021 | [5] 0.019 | [6] -0.053 | [7] 0.026 | [8] -0.002 | [9] -0.003 | [10] -0.043

PTTG1IP (UniProt P53801)
inactive: [1] -0.033 | [2] 0.026 | [3] -0.222 | [4] 0.065 | [5] 0.12 | [6] -0.077 | [7] -0.017 | [8] 0.083 | [9] 0.017 | [10] 0.07

PWP2 (UniProt Q15269)
inactive: [1] 0.015 | [2] 0.105 | [3] 0.121 | [4] 0.052 | [5] -0.056 | [6] 0.031 | [7] -0.066 | [8] 0.111 | [9] -0.032 | [10] 0.014

PSMD5 (UniProt Q16401)
inactive: [1] -0.001 | [2] 0.009 | [3] -0.094 | [4] -0.009 | [5] 0.01 | [6] 0.008 | [7] 0.033 | [8] 0.038 | [9] -0.032 | [10] -0.009

PRUNE1 (UniProt Q86TP1)
inactive: [1] -0.004 | [2] -0.012 | [3] -0.179 | [4] 0.052 | [5] 0.041 | [6] 0.04 | [7] 0.006 | [8] 0.138 | [9] -0.107 | [10] 0.018

PSMD7 (UniProt P51665)
inactive: [1] -0.04 | [2] 0.001 | [3] -0.035 | [4] 0.029 | [5] -0.049 | [6] -0.002 | [7] -0.048 | [8] 0.016 | [9] 0.051 | [10] -0.089

PTPRC (UniProt P08575)
inactive: [1] -0.136 | [2] 0.051 | [3] 0.023 | [4] 0.005 | [5] -0.063 | [6] -0.045 | [7] 0.015 | [8] -0.015 | [9] -0.033 | [10] -0.053

PSMD9 (UniProt O00233)
inactive: [1] 0.041 | [2] 0.017 | [3] 0.022 | [4] 0.072 | [5] 0.017 | [6] 0.086 | [7] 0.029 | [8] -0.013 | [9] -0.027 | [10] 0.005

PTPN2 (UniProt P17706)
inactive: [1] -0.218 | [2] 0.047 | [3] -0.075 | [4] -0.076 | [5] 0.049 | [6] 0.107 | [7] 0.02 | [8] 0.118 | [9] -0.091 | [10] 0.029

PSMD12 (UniProt O00232)
inactive: [1] -0.001 | [2] 0.019 | [3] -0.061 | [4] 0.05 | [5] 0.001 | [6] 0.003 | [7] -0.012 | [8] -0.024 | [9] 0.045 | [10] -0.09

PRXL2A (UniProt Q9BRX8)
inactive: [1] 0.025 | [2] -0.201 | [3] 0.025 | [4] -0.091 | [5] -0.097 | [6] 0.068 | [7] -0.034 | [8] -0.266 | [9] 0.001 | [10] 0.127

PTER (UniProt Q96BW5)
inactive: [1] -0.023 | [2] 0.026 | [3] 0.007 | [4] 0.059 | [5] -0.017 | [6] -0.027 | [7] 0.015 | [8] 0.019 | [9] -0.008 | [10] -0.016

PTCD3 (UniProt Q96EY7)
inactive: [1] 0.056 | [2] 0.081 | [3] -0.032 | [4] 0.125 | [5] 0.018 | [6] 0.097 | [7] 0.046 | [8] -0.07 | [9] -0.015 | [10] 0.023

PTPA (UniProt Q15257)
inactive: [1] -0.022 | [2] 0.001 | [3] -0.021 | [4] 0.028 | [5] 0 | [6] 0.004 | [7] 0.028 | [8] -0.027 | [9] -0.021 | [10] -0.015

PTRH2 (UniProt Q9Y3E5)
inactive: [1] -0.061 | [2] 0.018 | [3] -0.001 | [4] 0.004 | [5] -0.016 | [6] -0.002 | [7] 0.047 | [8] 0.007 | [9] -0.089 | [10] 0.005

PSMC5 (UniProt P62195)
inactive: [1] 0.034 | [2] -0.001 | [3] 0.007 | [4] 0.054 | [5] -0.021 | [6] -0.004 | [7] -0.021 | [8] -0.005 | [9] 0.063 | [10] -0.075

PTK2 (UniProt Q05397)
inactive: [1] 0.154 | [2] -0.012 | [3] -0.061 | [4] -0.012 | [5] -0.012 | [6] 0 | [7] -0.007 | [8] -0.02 | [9] 0.004 | [10] -0.02

PXMP4 (UniProt Q9Y6I8)
inactive: [1] 0.035 | [2] -0.031 | [3] -0.064 | [4] 0.005 | [5] -0.021 | [6] -0.013 | [7] 0.034 | [8] 0.017 | [9] -0.063 | [10] -0.034

PSTPIP2 (UniProt Q9H939)
inactive: [1] -0.026 | [2] -0.136 | [3] 0.027 | [4] -0.095 | [5] 0.064 | [6] -0.018 | [7] 0 | [8] -0.01 | [9] 0.032 | [10] 0.006

QRSL1 (UniProt Q9H0R6)
inactive: [1] -0.092 | [2] -0.007 | [3] -0.218 | [4] -0.089 | [5] 0.006 | [6] -0.063 | [7] 0.053 | [8] -0.049 | [9] -0.084 | [10] -0.036

PSMB5 (UniProt P28074)
inactive: [1] 0.118 | [2] 0.05 | [3] 0.038 | [4] 0.121 | [5] 0.017 | [6] -0.019 | [7] 0.032 | [8] -0.02 | [9] 0.071 | [10] -0.023

Quoted at random: two records from the list
PXMP4 (UniProt Q9Y6I8)
inactive: [1] 0.035 | [2] -0.031 | [3] -0.064 | [4] 0.005 | [5] -0.021 | [6] -0.013 | [7] 0.034 | [8] 0.017 | [9] -0.063 | [10] -0.034

PSTPIP2 (UniProt Q9H939)
inactive: [1] -0.026 | [2] -0.136 | [3] 0.027 | [4] -0.095 | [5] 0.064 | [6] -0.018 | [7] 0 | [8] -0.01 | [9] 0.032 | [10] 0.006

Next part.

PSMD8 (UniProt P48556)
inactive: [1] -0.035 | [2] 0.042 | [3] -0.07 | [4] 0.009 | [5] -0.009 | [6] 0.016 | [7] -0.015 | [8] 0.007 | [9] 0.019 | [10] -0.101

PUS7L (UniProt Q9H0K6)
inactive: [1] -0.047 | [2] 0 | [3] -0.087 | [4] -0.036 | [5] 0.043 | [6] 0.023 | [7] 0.019 | [8] -0.031 | [9] 0.016 | [10] -0.087

PUS10 (UniProt Q3MIT2)
inactive: [1] 0.004 | [2] -0.089 | [3] 0.123 | [4] 0.016 | [5] 0 | [6] 0.034 | [7] 0.006 | [8] 0.12 | [9] -0.045 | [10] -0.01

PUM1 isoform 3 (UniProt Q14671)
inactive: [1] 0 | [2] -0.032 | [3] -0.082 | [4] -0.015 | [5] 0.034 | [6] 0.108 | [7] -0.008 | [8] 0.01 | [9] -0.028 | [10] -0.007

PYCR2 (UniProt Q96C36)
inactive: [1] 0.006 | [2] -0.007 | [3] -0.011 | [4] 0.028 | [5] -0.02 | [6] -0.016 | [7] -0.005 | [8] -0.02 | [9] 0.001 | [10] -0.02

PXN (UniProt P49023)
inactive: [1] 0.009 | [2] 0.007 | [3] 0.028 | [4] 0.087 | [5] -0.002 | [6] -0.008 | [7] 0.029 | [8] -0.036 | [9] 0 | [10] 0.011
